{"sequences": {"note": "The chains behind the UniProt entries cited, without tags or fusion partners.", "UniProt Q14191, whole entry, looked up": "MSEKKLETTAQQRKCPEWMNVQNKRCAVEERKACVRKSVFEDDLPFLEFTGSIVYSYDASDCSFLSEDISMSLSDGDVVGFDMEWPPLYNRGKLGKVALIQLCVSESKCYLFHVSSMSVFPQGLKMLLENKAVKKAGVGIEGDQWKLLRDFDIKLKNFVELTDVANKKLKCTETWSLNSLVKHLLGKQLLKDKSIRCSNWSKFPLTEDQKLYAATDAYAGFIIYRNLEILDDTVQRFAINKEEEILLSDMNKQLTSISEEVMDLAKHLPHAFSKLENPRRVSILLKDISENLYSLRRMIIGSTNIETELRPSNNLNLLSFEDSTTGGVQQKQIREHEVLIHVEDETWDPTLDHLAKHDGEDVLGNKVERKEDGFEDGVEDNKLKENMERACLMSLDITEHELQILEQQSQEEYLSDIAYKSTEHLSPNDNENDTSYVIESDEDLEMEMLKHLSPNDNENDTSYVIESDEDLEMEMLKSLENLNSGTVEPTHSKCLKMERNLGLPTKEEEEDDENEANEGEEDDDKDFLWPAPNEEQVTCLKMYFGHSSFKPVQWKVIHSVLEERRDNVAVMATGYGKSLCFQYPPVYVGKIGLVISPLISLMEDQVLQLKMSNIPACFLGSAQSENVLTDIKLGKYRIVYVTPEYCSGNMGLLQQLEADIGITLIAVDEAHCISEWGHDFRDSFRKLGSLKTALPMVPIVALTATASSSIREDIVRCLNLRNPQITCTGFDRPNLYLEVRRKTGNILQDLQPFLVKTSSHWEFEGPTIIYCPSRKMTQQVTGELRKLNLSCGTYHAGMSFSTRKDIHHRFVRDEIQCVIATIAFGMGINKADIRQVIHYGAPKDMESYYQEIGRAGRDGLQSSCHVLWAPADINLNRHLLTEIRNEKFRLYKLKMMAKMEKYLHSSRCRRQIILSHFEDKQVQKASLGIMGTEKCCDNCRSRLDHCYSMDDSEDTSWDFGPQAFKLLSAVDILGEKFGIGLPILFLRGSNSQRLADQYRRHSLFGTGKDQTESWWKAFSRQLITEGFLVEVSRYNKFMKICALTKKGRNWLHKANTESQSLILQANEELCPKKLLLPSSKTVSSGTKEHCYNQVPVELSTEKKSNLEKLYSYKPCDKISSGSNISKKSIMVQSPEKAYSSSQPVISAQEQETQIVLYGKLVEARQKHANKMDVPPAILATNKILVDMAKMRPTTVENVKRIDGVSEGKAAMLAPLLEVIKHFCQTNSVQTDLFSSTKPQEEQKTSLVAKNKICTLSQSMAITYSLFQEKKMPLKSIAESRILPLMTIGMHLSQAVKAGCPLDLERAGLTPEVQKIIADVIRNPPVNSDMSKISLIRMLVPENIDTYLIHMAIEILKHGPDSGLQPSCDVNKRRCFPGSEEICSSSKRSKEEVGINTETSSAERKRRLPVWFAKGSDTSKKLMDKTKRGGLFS"}, "source": "PubChem BioAssay AID651768", "about": "(National Center for Advancing Translational Sciences (NCATS), 2012)", "note": "Out of some 360,000 compounds screened, about 1,700 (0.47%) were called active. The shares of active, inactive and inconclusive entries below differ from those in the screen. The call rests on the fitted dose curve; in most records, active means well fitted inhibition curve with a large enough effect; inconclusive means small, poorly fitted or top-dose-only effect; inactive means no such curve, though single readings can be large or run the other way. Potencies of inconclusive entries are doubtful fits and often do not repeat. On the % scale 0 is the no-effect control and ±100 the full control effect; potency means the concentration at half of the fitted maximal effect."}
{"biological_target": "Bifunctional 3'-5' exonuclease/ATP-dependent helicase WRN (Homo sapiens) (UniProt Q14191)", "experiment": "qHTS for Inhibitors of WRN Helicase; further: nearly all actives have a fitted effect of over 55% in size", "settings": "WRN helicase unwinding, fluorescent forked duplex, kinetic; activity change, negative = inhibition: at 114 µM (top of the series) unless noted", "summary_of_the_method": "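WRN at 20 nM final preincubated with compound 15 min at room temperature; reaction started with 100 nM fluorophore/quencher forked duplex oligonucleotide and 2 mM ATP final. Unwinding followed kinetically by red fluorescence (ex 525, em 598 nm).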"}
{"compound": "Oc1ccc(N=Cc2ccc(-c3cccs3)s2)cc1", "Potency": "active: 50.1 µM"}
{"compound": "O=C(CSc1nnnn1-c1ccccc1)Nc1ccc(N2CCOCC2)cc1", "Potency": "inactive"}
{"compound": "CCN1C(c2ccccc2)=C(c2ccccc2)S/C1=C\\C=C1/SC(=S)N(C)C1=O", "Potency": "inconclusive: 79.4 µM [inhibitor, partial curve]"}
{"compound": "C#CCN1C(=O)S/C(=C\\c2ccc(-c3ccc(C(=O)O)cc3C)o2)C1=O", "Potency": "inconclusive: 35.5 µM [inhibitor, single point]"}
{"compound": "CC[N+]1(C)CCC(O)(c2ccc(OC)cc2)C(C(=O)c2ccc(OC)cc2)C1", "note": "(stereo not given)", "Potency": "active: 10 µM"}
{"compound": "Oc1ccc(/C=N/N=C/c2ccc(O)c(O)c2)cc1O", "Potency": "active: 0.752 µM"}
{"compound": "O=C(O)C1CCCCC1C(=O)Nc1cccc(Br)c1", "note": "(stereo not given)", "Potency": "active: 50.1 µM"}
{"compound": "Cc1ccccc1NC(=O)CN1C(=O)N/C(=C\\c2cccn2-c2cccc(C(=O)O)c2)C1=O", "Potency": "active: 10.6 µM"}
{"compound": "NC(=O)c1cc(-c2csc(-c3cccnc3)n2)ccc1O", "Potency": "inconclusive: 70.8 µM [inhibitor, partial curve]"}
{"compound": "CCc1ccc([C@@H]2CC=C(C(=O)O)[C@H](c3ccc(C(C)(C)C)cc3)N2S(=O)(=O)c2ccc(C)cc2)cc1", "Potency": "inconclusive: 70.8 µM [inhibitor, partial curve]"}
{"compound": "Cn1ncc(Cl)c1C(=O)Nc1cccc(Cl)c1", "Potency": "inactive"}
{"compound": "CCOc1ccc(/C=C2\\SC(=S)N(NC(=O)c3ccncc3)C2=O)cc1OC", "Potency": "inconclusive: 35.5 µM [inhibitor, partial curve]"}
{"compound": "Cc1ncsc1CCC(=O)N1CCCC(Nc2ccc(F)c(F)c2)C1", "note": "(stereo not given)", "Potency": "inconclusive: 39.8 µM [inhibitor, single point]"}
{"compound": "O=C(CCN1CCc2ccccc2C(O)(c2ccccc2)C1)c1ccc2c(c1)OCCO2", "note": "(stereo not given)", "Potency": "active: 31.6 µM"}
{"compound": "CCC(=O)N1COC[C@@H]1Cc1ccccc1", "Potency": "inconclusive: 11.2 µM [inhibitor, partial curve]"}
{"compound": "Cc1cc(Cl)cc(Cl)c1OCC(=O)NCc1ccco1", "activity change, negative = inhibition": "inactive: -3.74% [at 11.6 µM]"}
{"compound": "COCC1CCN(C(=O)c2ccc(OC)c(OC3CCN(C(C)C)CC3)c2)CC1", "Potency": "inconclusive: 89.1 µM [inhibitor, single point]"}
{"compound": "O=C1C=C(c2cc(F)ccc2F)C[C@@H](c2ccc(F)cc2)C1", "Potency": "inactive"}
{"compound": "CCN(C(=O)COC(=O)/C=C/c1ccco1)C1CCCCC1", "Potency": "inconclusive: 56.2 µM [inhibitor, partial curve]"}
{"compound": "O=C1NC2(CCCCCC2)C(=O)N1Cc1c(F)cccc1Cl", "Potency": "inactive"}
{"compound": "O=c1cc(-c2ccccc2)[nH]c2ccc(F)cc12", "Potency": "inactive"}
{"compound": "CC(=O)N(C(C)=O)c1nc(-c2ccccc2)cn1/N=C/c1ccccc1", "Potency": "inconclusive: 8.91 µM [inhibitor, partial curve, poor fit]"}
{"compound": "CC(C)(C)C1COc2ccccc2N1C(=O)c1cccc(Cl)c1", "note": "(stereo not given)", "Potency": "inactive"}
{"compound": "O=C(/C=C/c1ccccc1)CCN1CCCCC1", "Potency": "inconclusive: 11.2 µM [inhibitor, partial curve, poor fit]"}
{"compound": "CCc1c(C)c(C#N)c2[nH]c3ccccc3n2c1=S", "Potency": "inactive"}
{"compound": "Cc1c(CCOC(=O)c2cc([N+](=O)[O-])cc([N+](=O)[O-])c2)sc[n+]1CC(=O)c1ccc(Br)cc1", "Potency": "inconclusive: 39.8 µM [inhibitor, single point]"}
{"compound": "N#Cc1c(NC(=O)c2ccccc2Cl)n(Cc2ccccc2)c2nc3ccccc3nc12", "Potency": "inconclusive: 44.7 µM [inhibitor, partial curve]"}
{"compound": "O=C(CN1C(=O)/C(=C/c2cccc(Br)c2)SC1=S)NCCCN1CCOCC1", "Potency": "active: 79.4 µM"}
{"compound": "O=C(CN1CCN(c2ccc(Cl)cc2)CC1)Nc1cccc(F)c1", "activity change, negative = inhibition": "inconclusive: -41.3% [inhibitor] [at 57.1 µM]"}
{"compound": "N#C/C(=C/c1cn[nH]c1-c1ccc(Br)cc1)C(=O)O", "Potency": "inconclusive: 70.8 µM [inhibitor, partial curve]"}
{"compound": "Cc1cc(C)cc(S(=O)(=O)c2cnc3ccccc3n2)c1", "Potency": "inconclusive: 89.1 µM [inhibitor, single point]"}
{"compound": "O=C(NC(=S)Nc1ccccc1C(=O)O)c1cncc(Br)c1", "Potency": "inconclusive: 79.4 µM [inhibitor, single point]"}
{"compound": "Nc1nc(SCc2nnc(SCC(=O)O)n2-c2ccccc2)nc2sc3c(c12)CCCC3", "Potency": "inconclusive: 35.5 µM [inhibitor, full curve, poor fit]"}
{"compound": "C=CCOc1ccccc1/C=c1\\sc2nc(=O)c(C)nn2c1=O", "Potency": "inconclusive: 50.1 µM [inhibitor, partial curve]"}
{"compound": "O=C(O)COc1ccc(/C=N/NC(=O)c2ccc(-c3csc(Nc4ccc(Cl)cc4)n3)cc2)cc1", "Potency": "active: 12.6 µM"}
{"compound": "CC(=O)c1sc2nc(CSc3nncn3C)[nH]c(=O)c2c1C", "Potency": "inactive"}
{"compound": "CC1CCCCN1S(=O)(=O)c1ccc(C(=O)Nc2nnc(-c3ccco3)o2)cc1", "note": "(stereo not given)", "Potency": "inconclusive: 35.5 µM [inhibitor, full curve, poor fit]"}
{"compound": "COc1ccc(/C=N/n2c(=O)[nH]c3c([nH]c4ccc(Br)cc43)c2=O)cc1CN1CCOCC1", "Potency": "inconclusive: 44.7 µM [inhibitor, partial curve]"}
{"compound": "COC(=O)c1ccc2c(c1)C(=O)/C(=C/c1ccc(O)cc1)O2", "Potency": "inconclusive: 79.4 µM [inhibitor, partial curve]"}
{"compound": "COc1ccc2c(c1)C(=C(C#N)C#N)C(=O)N2CCc1ccccc1", "Potency": "active: 50.1 µM"}
{"compound": "COC(=O)c1cc(O)cc(OC)c1Oc1cc(C)cc(O)c1C(=O)O", "Potency": "active: 20 µM"}
{"compound": "CCC1=NN2C(=N)/C(=C\\c3ccc(SCc4ccco4)o3)C(=O)N=C2S1", "Potency": "active: 50.1 µM"}
{"compound": "COc1ccccc1NS(=O)(=O)c1cc(NC(=O)c2ccc(NC(C)=O)cc2)ccc1N1CCOCC1", "Potency": "inactive"}
{"compound": "Cc1cc(N=Cc2c(O)n(-c3ccc4c(c3)OCO4)c(=O)c3ccccc23)ccn1", "Potency": "inconclusive: 7.08 µM [inhibitor, full curve]"}
{"compound": "CC(=O)C1=C(O)C(=O)N(CCc2c[nH]c3ccccc23)C1c1ccc(C)cc1", "note": "(stereo not given)", "Potency": "inactive"}
{"compound": "CCC(=O)OCCNc1cc(Sc2nc3ccccc3[nH]2)c2nonc2c1[N+](=O)[O-]", "Potency": "inconclusive: 44.7 µM [inhibitor, partial curve]"}
{"compound": "CSc1nnc(NC(=O)c2nc(S(=O)(=O)Cc3ccc(C)cc3)ncc2Cl)s1", "Potency": "inconclusive: 14.1 µM [inhibitor, single point]"}
{"compound": "CC(=O)c1sc(NC(=O)C2CC(=O)N(Cc3ccco3)C2)nc1-c1ccccc1", "note": "(stereo not given)", "Potency": "inconclusive: 79.4 µM [inhibitor, partial curve]"}
{"compound": "COc1cc(C(=O)Nc2ccc(S(=O)(=O)Nc3nccc(C)n3)cc2)c([N+](=O)[O-])cc1OC", "Potency": "inconclusive: 89.1 µM [inhibitor, single point]"}
{"compound": "CCOc1ccc(NS(=O)(=O)c2ccc(NS(=O)(=O)c3ccccc3)cc2)cc1", "Potency": "inactive"}
{"compound": "O=C(Nc1nccs1)c1cn(-c2ccccc2)nc1-c1ccncc1", "Potency": "inactive"}
{"compound": "CN(CCC#N)C(=O)COC(=O)c1c2c(nc3ccccc13)/C(=C/c1ccco1)CC2", "Potency": "inconclusive: 13.4 µM [inhibitor, partial curve]"}
{"compound": "Cc1sc2nc(CSc3nnnn3-c3ccc(Cl)cc3)[nH]c(=O)c2c1C", "Potency": "inconclusive: 11.2 µM [inhibitor, partial curve]"}
{"compound": "Cc1cc2cc3c(=O)[nH]c(=O)cc-3n(CC(O)C(O)C(O)CO)c2cc1C", "note": "(stereo not given)", "Potency": "active: 56.2 µM"}
{"compound": "CC1CCN(c2c(NCc3ccc(C(=O)NCCc4ccc(Cl)cc4)cc3)c(=O)c2=O)CC1", "Potency": "inactive"}
{"compound": "S=c1[nH]c(-c2ccccc2)cs1", "Potency": "inconclusive: 50.1 µM [inhibitor, partial curve]"}
{"compound": "CC(C)(C)[C@H]1COC(=O)[C@H](NC(=O)OCC2c3ccccc3-c3ccccc32)C/C=C\\C[C@@H](CC(=O)N[C@H](CO)Cc2ccccc2)C(=O)N1", "Potency": "inactive"}
{"compound": "CC(=NNC(=S)Nc1cccc(C)c1)c1ccccn1", "Potency": "inconclusive: 20 µM [inhibitor, full curve, poor fit]"}
{"compound": "CC(SCC(=O)Nc1ccc(F)cc1)c1nc2ccccc2c(=O)[nH]1", "note": "(stereo not given)", "Potency": "inactive"}
{"compound": "Cc1ccccc1/C=N/n1c(-c2cc(-c3ccccc3)n[nH]2)n[nH]c1=S", "Potency": "inactive"}
{"compound": "N#Cc1cccc(NC(=O)COC(=O)CCc2nc3ccccc3c(=O)[nH]2)c1", "Potency": "inconclusive: 79.4 µM [inhibitor, single point]"}
{"compound": "O=C(COC(=O)CNC(=O)C1CCCCC1)NCc1ccc(Cl)cc1", "Potency": "inactive"}
{"compound": "Nc1cc(C(=O)OCC(=O)NNC(=O)c2cccs2)ccc1Cl", "Potency": "inconclusive: 89.1 µM [inhibitor, single point]"}
{"compound": "CCN1CCN(C(=O)NC(c2ccc(C)c(F)c2)C(Cl)Cl)CC1", "note": "(stereo not given)", "Potency": "inconclusive: 31.6 µM [inhibitor, single point]"}
{"compound": "Cc1nnc(-c2cccc(Br)c2)c2cn(-c3cccc(Br)c3)nc12", "Potency": "active: 25.1 µM"}
{"compound": "COc1cc(/C=C/C(=O)O)cc(S(=O)(=O)Nc2ccc(S(=O)(=O)N3CCCCC3)cc2)c1OC", "Potency": "inconclusive: 89.1 µM [inhibitor, single point]"}
{"compound": "CCOC(=O)c1ccc(CC(=O)c2ccc(O)c(O)c2O)o1", "Potency": "inconclusive: 2.38 µM [inhibitor, partial curve]"}
{"compound": "O=C(O)c1ccc(N2C(=O)c3cccc4c(C(=O)O)ccc(c34)C2=O)cc1", "Potency": "active: 50.1 µM"}
{"compound": "O=C(Nc1ccccc1C(=O)O)c1ccc(NC(=O)C2CCCCC2)cc1", "Potency": "inconclusive: 12.6 µM [inhibitor, full curve, poor fit]"}
{"compound": "O=C1/C(=C/c2cccs2)COc2ccccc21", "Potency": "inconclusive: 10 µM [inhibitor, partial curve]"}
